These are yes or no findings as the source states them, for the method shown. For part of these data: Binding seen in cells or lysates may run through a third protein. Some results given as binding are weak or reduced against the parent protein; the word gives no strength. For part of these data: Sequences can lack the tags named with a protein.

Amino acid sequences for entries named in this document (tags omitted).
UniProt P06241: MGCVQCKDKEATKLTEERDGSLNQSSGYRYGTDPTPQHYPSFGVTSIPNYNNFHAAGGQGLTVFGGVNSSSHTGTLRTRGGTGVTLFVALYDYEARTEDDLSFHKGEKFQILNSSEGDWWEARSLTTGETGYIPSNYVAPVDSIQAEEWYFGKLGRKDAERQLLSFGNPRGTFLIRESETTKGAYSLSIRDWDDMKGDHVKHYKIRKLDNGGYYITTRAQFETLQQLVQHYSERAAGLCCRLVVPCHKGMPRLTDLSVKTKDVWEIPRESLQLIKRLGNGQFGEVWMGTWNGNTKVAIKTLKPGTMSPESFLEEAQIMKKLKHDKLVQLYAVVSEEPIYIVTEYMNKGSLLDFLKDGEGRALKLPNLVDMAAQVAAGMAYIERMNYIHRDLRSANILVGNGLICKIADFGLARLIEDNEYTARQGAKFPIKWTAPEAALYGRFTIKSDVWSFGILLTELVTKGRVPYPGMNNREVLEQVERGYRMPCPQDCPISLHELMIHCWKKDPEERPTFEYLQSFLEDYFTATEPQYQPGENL

One assay addresses T1, Flag-ARHGEF16 (human) (UniProt Q5VV41).
T1 sequence: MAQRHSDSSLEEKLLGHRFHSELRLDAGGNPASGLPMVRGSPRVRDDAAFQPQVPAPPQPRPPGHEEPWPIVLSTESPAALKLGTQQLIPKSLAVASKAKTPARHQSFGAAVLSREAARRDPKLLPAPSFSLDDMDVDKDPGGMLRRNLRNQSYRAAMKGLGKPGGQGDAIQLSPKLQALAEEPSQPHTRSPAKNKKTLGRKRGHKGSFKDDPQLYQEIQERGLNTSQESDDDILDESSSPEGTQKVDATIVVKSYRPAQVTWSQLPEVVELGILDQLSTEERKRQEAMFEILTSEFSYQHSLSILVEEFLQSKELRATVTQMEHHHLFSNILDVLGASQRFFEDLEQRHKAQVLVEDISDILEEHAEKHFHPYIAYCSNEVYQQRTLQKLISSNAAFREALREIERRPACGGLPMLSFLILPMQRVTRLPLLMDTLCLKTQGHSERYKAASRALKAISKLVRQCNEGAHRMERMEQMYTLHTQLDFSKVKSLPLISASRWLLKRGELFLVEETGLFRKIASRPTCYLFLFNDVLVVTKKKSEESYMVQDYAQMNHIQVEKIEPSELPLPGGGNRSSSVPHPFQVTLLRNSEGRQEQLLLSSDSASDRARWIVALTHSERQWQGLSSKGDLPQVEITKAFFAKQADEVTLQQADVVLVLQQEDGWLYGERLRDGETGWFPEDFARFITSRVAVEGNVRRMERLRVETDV
Nature of the assay: co-IP; HEK293T cotransfected with Flag-ARHGEF16 and HA-FYN; lysate with Flag beads overnight at 4 °C in lysis buffer (25 mM Tris-HCl pH 7.0, 300 mM NaCl, 1% NP-40).

For a further assay, the target named is T2, GST-ARHGEF16 (human) (UniProt Q5VV41).
T2 sequence: T1 sequence
The experiment in a line: pull-down; GST-fusion proteins immobilized on Glutathione Sepharose 4B beads, incubated with lysates of HEK293T cells transfected with HA-FYN; SDS-PAGE and WB; only the target purified.

For assay [1], the target named is T3, GST-ARHGEF16 (residues 1-274) (human) (UniProt Q5VV41).
T3 sequence: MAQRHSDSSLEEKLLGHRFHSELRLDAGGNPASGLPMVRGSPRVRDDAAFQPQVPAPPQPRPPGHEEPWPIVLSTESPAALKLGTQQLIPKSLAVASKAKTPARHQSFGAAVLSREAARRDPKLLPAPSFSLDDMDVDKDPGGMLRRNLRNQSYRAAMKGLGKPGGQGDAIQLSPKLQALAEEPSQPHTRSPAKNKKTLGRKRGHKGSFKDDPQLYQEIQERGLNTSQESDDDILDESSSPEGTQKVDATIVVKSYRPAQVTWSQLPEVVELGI
The assay is described as above.

In assay [2] the target is T4, ARHGEF16 in pGBKT7 (yeast two-hybrid bait) (human) (UniProt Q5VV41).
T4 sequence: T1 sequence
The experiment in a line: two-hybrid; Matchmaker Gold system; ARHGEF16 in pGBKT7 as bait in Y2HGold, mated with Y187 holding the Universal Human Mate & Plate Library; blue colonies on SD/-Leu/-Trp/X-alpha-Gal/Aba.

Assay [3] has as its target endogenous FYN in HEK293T cells (human (endogenous in HEK293T)) (UniProt P06241). Nature of the assay: co-IP; HEK293T extracts with Flag-ARHGEF16; IP with beads coated with anti-FYN antibody or normal rabbit IgG.
Assay [4] concerns the target endogenous FYN in SW620 cells (human (endogenous in SW620)) (UniProt P06241). Nature of the assay: co-IP; SW620 extracts, endogenous proteins; IP with beads coated with anti-FYN antibody or normal rabbit IgG.

Turning to HA-FYN (from UniProt P06241 1-537), the binding entry (with Flag-ARHGEF16 (human); with GST-ARHGEF16 (human); in assay [1]) was “binds” in each case.

Consider “FYN in pGADT7 (yeast two-hybrid prey) (from UniProt P06241 1-537)”, for which, in assay [2], the binding entry is on record as “binds”.

B1: Flag-ARHGEF16 (protein, UniProt Q5VV41 1-709)
chain: T1 sequence
Regarding B1, in assay [3], the binding entry is “binds”.

B2: endogenous ARHGEF16 in SW620 cells (protein, UniProt Q5VV41 1-709)
chain: T1 sequence
For B2, the binding entry in assay [4] was “binds”.

Values taken from article PMC7435200.
